Binding data for 1 molecule are collected here from article PMC13649568.

These are yes or no findings as the source states them, for the method shown. Binding seen in cells or lysates may run through a third protein. Some binding calls cover weakened binding; strength is not graded here. Where a sequence is shown, tags or fusion partners need not be part of it.

In the assay the target is T1, FLAG-tagged SESN3 (human (endogenous in Jurkat)) (UniProt P58005).
T1 sequence: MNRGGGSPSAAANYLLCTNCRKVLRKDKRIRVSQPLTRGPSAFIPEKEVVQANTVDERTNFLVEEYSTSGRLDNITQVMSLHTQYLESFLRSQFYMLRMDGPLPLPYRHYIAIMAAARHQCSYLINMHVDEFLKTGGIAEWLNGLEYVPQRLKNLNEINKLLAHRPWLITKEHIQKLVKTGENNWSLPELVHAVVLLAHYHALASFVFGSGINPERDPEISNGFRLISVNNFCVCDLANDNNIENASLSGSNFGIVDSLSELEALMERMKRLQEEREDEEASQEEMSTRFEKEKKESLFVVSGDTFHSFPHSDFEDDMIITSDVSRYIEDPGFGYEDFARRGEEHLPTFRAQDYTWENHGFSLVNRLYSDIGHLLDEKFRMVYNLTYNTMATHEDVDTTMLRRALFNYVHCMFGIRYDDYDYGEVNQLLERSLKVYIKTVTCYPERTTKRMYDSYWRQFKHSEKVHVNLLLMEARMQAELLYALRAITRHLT
The assay can be described thus: co-IP; Lysate of endogenously FLAG-tagged SESN3 Jurkat cells, anti-FLAG M2 magnetic beads, 2 h at 4 °C, eluted with FLAG peptide, western blot for WDR59. Lysis buffer: 25 mM Tris-HCl pH 7.5, 150 mM NaCl, 1 mM EDTA, 0.5% NP-40, 5% glycerol. Before lysis the cells were kept 1 h in RPMI (fed) or HBSS (starved), with or without the indicated free amino acid at 500 µM. On the technique in general: Immunoblotting shows a protein as a band on a membrane.

B1: GATOR2 complex subunit, WDR59 (protein, UniProt Q6PJI9 1-974)
chain: MAARWSSENVVVEFRDSQATAMSVDCLGQHAVLSGRRFLYIVNLDAPFEGHRKISRQSKWDIGAVQWNPHDSFAHYFAASSNQRVDLYKWKDGSGEVGTTLQGHTRVISDLDWAVFEPDLLVTSSVDTYIYIWDIKDTRKPTVALSAVAGASQVKWNKKNANCLATSHDGDVRIWDKRKPSTAVEYLAAHLSKIHGLDWHPDSEHILATSSQDNSVKFWDYRQPRKYLNILPCQVPVWKARYTPFSNGLVTVMVPQLRRENSLLLWNVFDLNTPVHTFVGHDDVVLEFQWRKQKEGSKDYQLVTWSRDQTLRMWRVDSQMQRLCANDILDGVDEFIESISLLPEPEKTLHTEDTDHQHTASHGEEEALKEDPPRNLLEERKSDQLGLPQTLQQEFSLINVQIRNVNVEMDAADRSCTVSVHCSNHRVKMLVKFPAQYPNNAAPSFQFINPTTITSTMKAKLLKILKDTALQKVKRGQSCLEPCLRQLVSCLESFVNQEDSASSNPFALPNSVTPPLPTFARVTTAYGSYQDANIPFPRTSGARFCGAGYLVYFTRPMTMHRAVSPTEPTPRSLSALSAYHTGLIAPMKIRTEAPGNLRLYSGSPTRSEKEQVSISSFYYKERKSRRWKSKREGSDSGNRQIKAAGKVIIQDIACLLPVHKSLGELYILNVNDIQETCQKNAASALLVGRKDLVQVWSLATVATDLCLGPKSDPDLETPWARHPFGRQLLESLLAHYCRLRDVQTLAMLCSVFEAQSRPQGLPNPFGPFPNRSSNLVVSHSRYPSFTSSGSCSSMSDPGLNTGGWNIAGREAEHLSSPWGESSPEELRFGSLTYSDPRERERDQHDKNKRLLDPANTQQFDDFKKCYGEILYRWGLREKRAEVLKFVSCPPDPHKGIEFGVYCSHCRSEVRGTQCAICKGFTFQCAICHVAVRGSSNFCLTCGHGGHTSHMMEWFRTQEVCPTGCGCHCLLESTF
B1: the binding result is listed as “binds”.
